Data as given in PubChem BioAssay AID1053208 (Peter MacCallum Cancer Centre, 2014).
This is one part, drawn at random, of about 17,000 deposited reagents. 788 of them (4.7%) count as active. 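Calls rest on z-score classes alone; an extra cut-off of viability at most 70% of control was not applied to them.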 Further read-outs or replicates are left out here. Reagent sequences are not shown.

Purpose: 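Synthetic lethal interactions between gene loss and doxorubicin in osteosarcoma cells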 (primary screen)
Cell system: mouse osteosarcoma cells, early-passage culture from an engineered mouse model of fibroblastic bone tumour
Reagent: siRNA pool against mouse genes, 40 nM
Time to read-out: about 120 h (48 h before drug, then 72 h with drug)
Conditions: doxorubicin 100 nM for 72 h, roughly 30-40% inhibitory dose
Measurement: 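Luminescent ATP signal taken as viability with or without 100 nM doxorubicin for 72 h; mean of two wells set against non-targeting siRNA and turned into robust z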
Reading the numbers: viability z-score with doxorubicin: higher = more viable cells under doxorubicin; viability z-score without drug: higher = more viable cells with knock-down alone
Rule for the call: 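Called active if knock-down leaves viability unchanged without drug (z within -2 to 2) but lowers it with doxorubicin (z at or under -2)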

target gene	combined z-score class	viability z-score with doxorubicin	viability z-score without drug	call
Nme3 (GeneID 79059)	no change with or without drug	-0.11	0.51	inactive
Cacnb3 (GeneID 12297)	no change with or without drug	-0.22	-0.51	inactive
Foxf2 (GeneID 14238)	high cell count without drug only	0.34	2.87	inactive
Slc24a1 (GeneID 214111)	no change with or without drug	0	0.67	inactive
Sucnr1 (GeneID 84112)	no change with or without drug	1.46	0.51	inactive
Or2h2 (GeneID 258469)	no change with or without drug	0.22	-0.84	inactive
Cyp2d9 (GeneID 13105)	no change with or without drug	-1.35	-0.34	inactive
Bcl7a (GeneID 77045)	no change with or without drug	1.12	1.01	inactive
Iqce (GeneID 74239)	no change with or without drug	-0.79	1.18	inactive
Pnliprp2 (GeneID 18947)	no change with or without drug	1.57	1.85	inactive
Anxa2 (GeneID 12306)	no change with or without drug	-0.22	0.67	inactive
Oit3 (GeneID 18302)	no change with or without drug	-0.22	-0.84	inactive
Ankrd54 (GeneID 223690)	low cell count with doxorubicin only	-2.36	-0.34	active
Psd4 (GeneID 215632)	no change with or without drug	-0.67	1.18	inactive
Or52n2b (GeneID 259062)	no change with or without drug	0	0.17	inactive
Ckap2l (GeneID 70466)	no change with or without drug	0.34	-0.51	inactive
Krtap5-1 (GeneID 50774)	low cell count with doxorubicin only	-2.47	-0.51	active
Lbx2 (GeneID 16815)	no change with or without drug	-0.45	1.85	inactive
Cd52 (GeneID 23833)	no change with or without drug	-0.34	0.51	inactive
Nid1 (GeneID 18073)	no change with or without drug	0.9	0.17	inactive
Anks4b (GeneID 72074)	low cell count with doxorubicin only	-2.36	-0.17	active
Irx6 (GeneID 64379)	no change with or without drug	-0.67	-0.84	inactive
Vmn2r81 (GeneID 216144)	no change with or without drug	0.34	0.67	inactive
Grhl1 (GeneID 195733)	low cell count with doxorubicin only	-2.36	-0.84	active
Or4k49 (GeneID 258886)	no change with or without drug	-1.57	0.17	inactive
Tango6 (GeneID 272538)	no change with or without drug	-0.34	-0.51	inactive
Ifit3 (GeneID 15959)	no change with or without drug	-0.79	-1.35	inactive
Wdr64 (GeneID 75820)	low cell count with doxorubicin only	-2.7	-1.52	active
Clca4a (GeneID 99663)	low cell count without drug only	-0.9	-3.2	inactive
Vps33a (GeneID 77573)	no change with or without drug	-0.22	0.34	inactive
Pip4k2b (GeneID 108083)	no change with or without drug	-1.01	0.51	inactive
Dnajb7 (GeneID 57755)	no change with or without drug	-0.45	0.67	inactive
Stambp (GeneID 70527)	no change with or without drug	1.46	0.84	inactive
Mtg2 (GeneID 52856)	low cell count with doxorubicin only	-2.81	-0.17	active
Rmp64 (GeneID 212547)	no change with or without drug	-0.22	-0.84	inactive
Psmb10 (GeneID 19171)	no change with or without drug	1.24	0.84	inactive
Qki (GeneID 19317)	no change with or without drug	0.34	0.67	inactive
Hoxa9 (GeneID 15405)	no change with or without drug	-1.91	-0.84	inactive
Mrgpra3 (GeneID 233222)	no change with or without drug	-0.9	-1.18	inactive
Pter (GeneID 19212)	no change with or without drug	1.35	-0.51	inactive
Mrpl4 (GeneID 66163)	low cell count with and without drug	-2.02	-2.19	inactive
Tspan2 (GeneID 70747)	low cell count with doxorubicin only	-2.25	-1.01	active
Rps3 (GeneID 27050)	low cell count with doxorubicin only	-4.27	-1.69	active
Gabarapl2 (GeneID 93739)	low cell count with doxorubicin only	-3.93	1.85	active
Idnk (GeneID 75731)	no change with or without drug	1.12	0.51	inactive
Mkx (GeneID 210719)	no change with or without drug	-1.46	-0.34	inactive
Tas2r135 (GeneID 387512)	no change with or without drug	-0.22	-0.51	inactive
Dnajb5 (GeneID 56323)	high cell count without drug only	-0.56	2.02	inactive
Fancc (GeneID 14088)	no change with or without drug	0.67	0	inactive
Rasd1 (GeneID 19416)	no change with or without drug	0.34	0.67	inactive
Szrd1 (GeneID 213491)	no change with or without drug	0	0.17	inactive
Rrbp1 (GeneID 81910)	no change with or without drug	-0.45	0.67	inactive
Pllp (GeneID 67801)	no change with or without drug	0.11	0.17	inactive
Chd9 (GeneID 109151)	no change with or without drug	0.45	-0.17	inactive
Or4p8 (GeneID 258774)	no change with or without drug	-1.24	-0.84	inactive
Adcy3 (GeneID 104111)	no change with or without drug	0.9	0.34	inactive
Ptk2 (GeneID 14083)	no change with or without drug	0	-1.52	inactive
Tbcb (GeneID 66411)	no change with or without drug	-1.35	-1.18	inactive
D930031A20Rik (GeneID 319423)	no change with or without drug	-1.12	-0.51	inactive
Ercc4 (GeneID 50505)	no change with or without drug	0.45	0.84	inactive
Bpifb5 (GeneID 228802)	no change with or without drug	0.67	0.17	inactive
Scn4a (GeneID 110880)	no change with or without drug	-0.45	-0.17	inactive
Tmsb4x (GeneID 19241)	low cell count with doxorubicin only	-2.02	-0.17	active

Reagents listed above marked active:
target gene	combined z-score class	viability z-score with doxorubicin	viability z-score without drug	call
Ankrd54 (GeneID 223690)	low cell count with doxorubicin only	-2.36	-0.34	active
Krtap5-1 (GeneID 50774)	low cell count with doxorubicin only	-2.47	-0.51	active
Anks4b (GeneID 72074)	low cell count with doxorubicin only	-2.36	-0.17	active
Grhl1 (GeneID 195733)	low cell count with doxorubicin only	-2.36	-0.84	active
Wdr64 (GeneID 75820)	low cell count with doxorubicin only	-2.7	-1.52	active
Mtg2 (GeneID 52856)	low cell count with doxorubicin only	-2.81	-0.17	active
Tspan2 (GeneID 70747)	low cell count with doxorubicin only	-2.25	-1.01	active
Rps3 (GeneID 27050)	low cell count with doxorubicin only	-4.27	-1.69	active
Gabarapl2 (GeneID 93739)	low cell count with doxorubicin only	-3.93	1.85	active
Tmsb4x (GeneID 19241)	low cell count with doxorubicin only	-2.02	-0.17	active
